Results reported in PubChem BioAssay AID2685 (National Center for Advancing Translational Sciences (NCATS), 2010).
This is one part of the list. The main result of the screen is listed elsewhere. These columns were measured beside it and carry no call. The list favours compounds with an active or inconclusive main result. Words in brackets tell the shape of the fitted curve; partial curves, single points and poor fits give uncertain potencies.

Assay: qHTS Assay for Lipid Storage Modulators in Drosophila S3 Cells;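 for cell number change: cells counted by Cell Tracker Red CMTPX staining in the red channel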
Conditions: BODIPY lipid droplet fluorescence, 18-24 h; for cell number change: measured here: cell count max response, cells fed with added oleic acid
How it was run: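 Drosophila S3 cells got compounds at several concentrations plus oleic acid (400 uM solution). Laser-scanning cytometry with 488 nm excitation read lipid droplets at 500-530 nm and cells at 575-640 nm. Percent activity was relative to 20 uM Triacsin C.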

[1] = measured here: lipid fluorescence (Fed channel) AC50, cells fed with added oleic acid
[2] = measured here: cell number channel AC50, cells fed with added oleic acid

Row | SMILES | cell number change | AC50 [1] | AC50 [2]
1 | Fc1ccc(-c2nnc(CSc3nnc(-c4cccs4)o3)o2)cc1 | 6.66% | 0.58 µM [falling, single point] | –
2 | CC(C)C(NC(=O)c1c(F)cccc1F)C(=O)N1CCN(S(=O)(=O)c2ccc(F)cc2)CC1 (centres undefined) | – | 1.03 µM [rising, full curve, poor fit] | –
3 | CCOC(=O)c1ccc(Nc2nnc(C(C)(C)C)c(=O)[nH]2)cc1 | -20.2% | 0.0259 µM [falling, full curve, poor fit] | –
4 | COc1ccc(Br)cc1CN(C)C(=O)c1cnc(C)cn1 | 17.4% | 2.06 µM [rising, single point] | –
5 | Cc1cc(C)cc(C(=O)NCC(=O)OCC(=O)N(C)C2CCS(=O)(=O)C2)c1 (centres undefined) | -6.58% | 4.11 µM [falling, single point] | –
6 | O=C(Nc1nnc(C2CC2)s1)C1CCCCN1S(=O)(=O)c1ccccc1 (centres undefined) | – | – | 2.31 µM [rising, single point]
7 | CCOCC(=O)Nc1ccc(S(=O)(=O)Nc2nccs2)cc1 | 0.265% | – | –
8 | CCn1nc(C(=O)Nc2cccc(S(=O)(=O)N3CCCC3)c2)c2ccccc2c1=O | 17.4% | 32.6 µM [rising, single point] | –
9 | COc1ccc(CCN(C)C(=O)c2cccc(S(=O)(=O)NCc3ccccc3)c2)cc1OC | -48.4% | – | 32.6 µM [falling, single point]
10 | Cc1ccc(CNC(=O)c2cc(S(=O)(=O)N3CCCCC3)ccc2N2CCOCC2)cc1 | 5.54% | 1.64 µM [rising, full curve] | –
11 | CC[C@H](C)[C@H](NC(=O)c1ccc(Cl)cc1)C(=O)OCC(=O)c1ccc2c(c1)NC(=O)CO2 | -73.8% | 6.51 µM [falling, partial curve] | 6.51 µM [falling, partial curve]
12 | CCN(CC)CCCN1C(=O)C(O)=C(C(=O)c2cc3cccc(OC)c3o2)C1c1ccncc1 (centres undefined) | 2.38% | 0.58 µM [falling, single point] | –
13 | Cc1ccc(NC(=O)/C(=C\c2ccc3c(c2)OCO3)NC(=O)c2ccco2)cc1 | -20.2% | 29.1 µM [falling, single point] | –
14 | CC(C)CNC(=O)C(=O)NCC1OCCCN1S(=O)(=O)c1cccs1 (centres undefined) | -38.5% | 0.355 µM [rising, full curve] | –
15 | CC(C)(C)c1cn(-c2ccc(Cl)cc2)c(=S)[nH]1 | 2.15% | 0.651 µM [falling, full curve] | –
16 | Cc1cc(=O)[nH]c(-n2ncc(C#N)c2N)n1 | -17.6% | – | 0.00461 µM [falling, full curve, poor fit]
17 | NC1=NC[C@H](c2ccccc2)N1CCc1cc(C(F)(F)F)cc(C(F)(F)F)c1 | -57.6% | 18.4 µM [falling, partial curve, poor fit] | 25.9 µM [falling, partial curve, poor fit]
18 | COc1ccc(S(=O)(=O)N2CCN(CCOc3ccccc3Cl)CC2)cc1OC | 8.77% | 1.46 µM [rising, partial curve] | –
19 | Cc1cccc(C)c1OCc1nnc(SCC(=O)Nc2nccs2)n1-c1ccccc1 | 21.5% | 0.461 µM [rising, full curve] | 0.291 µM [rising, full curve, poor fit]
20 | C/C=C\C(=O)Nc1cccc(C2=NOC3(C2)C[C@H](C(N)=O)N(C(=O)[C@H]2CCC(=O)N2)C3)c1 (some centres undefined) | -18.4% | 2.91 µM [falling, full curve] | 0.00461 µM [falling, full curve, poor fit]

Row | SMILES | cell number change | AC50 [1] | AC50 [2]
21 | Cc1ccc(C(=O)/C=C/c2cc(Br)cc(Br)c2O)o1 | -95.8% | – | 29.1 µM [falling, partial curve, poor fit]
22 | CC1CCN(c2c(NCC3CCC(C(=O)N4CCCC(C)C4)CC3)c(=O)c2=O)CC1 (centres undefined) | 10.7% | – | –
23 | CSCCC(NS(=O)(=O)c1ccc(Cl)cc1)C(=O)OCC(=O)c1c(C)[nH]c2ccccc12 (centres undefined) | -25.6% | 6.51 µM [rising, partial curve, poor fit] | –
24 | O=c1c2cc(F)ccc2sn1-c1ccccc1 | -81.1% | 29.1 µM [falling, partial curve] | 5.8 µM [falling, full curve]
25 | CCC(C)NC(=O)CNC(=S)N(Cc1ccc(F)cc1)C1CCCCC1 (centres undefined) | -14.6% | – | –
26 | COc1ccc([C@]23Cc4cc(C#N)ccc4C(O2)c2c(cc(C)n(-c4ccccc4)c2=O)O3)cc1 | 15.4% | 5.31 µM [rising, single point] | –
27 | CCC(=O)Nc1cccc(C(=O)c2ccccc2)c1 | -9.4% | 0.92 µM [rising, full curve] | –
28 | Cc1cccc(NC(=O)CN2C(=O)/C(=C3\SC(=S)N(CC4CCCO4)C3=O)c3ccccc32)c1 (centres undefined) | 3.44% | 14.6 µM [rising, partial curve] | –
29 | Cc1ccc(NC(=O)Nc2cccc([N+](=O)[O-])c2)cc1F | – | 6.51 µM [falling, single point] | –
30 | CC1CCN(S(=O)(=O)c2ccc(Cl)cc2Br)CC1 | – | 6.51 µM [falling, single point] | –
31 | Cc1ccc(-c2cnn3c(N4CCOCC4)cc(C)nc23)cc1 | 9.93% | – | –
32 | NC1=NC2=C(CCCC2)C2(CCCCC2)S1 | 2.08% | 6.51 µM [falling, single point] | –
33 | COc1cccc(Nc2ncnc3sc(C)cc23)c1 | 1.32% | 29.1 µM [falling, single point] | –
34 | C[C@@H]1CC=C[C@H]2[C@H]1C(=O)N(Cc1ccccc1)[C@H]2c1ccc(F)c(/C=C/c2ccccc2)c1 | 0.164% | 2.31 µM [rising, single point] | –
35 | C/C(=N\NC(=O)c1ccc2c(c1)OCO2)c1cccnc1 | 11.2% | 6.51 µM [rising, single point] | 6.51 µM [rising, partial curve]
36 | COC(=O)c1ccccc1NC(=O)C1CC(=O)N(c2ccccc2)C1 (centres undefined) | – | – | 6.51 µM [rising, single point]
37 | COc1cc(C2c3c(-c4ccccc4)n[nH]c3C(=O)N2c2ccc(C(=O)O)cc2)ccc1O (centres undefined) | – | 0.0116 µM [rising, full curve, poor fit] | –
38 | Cc1cc(C)c2c(CC(=O)Nc3nccs3)coc2c1 | -7.69% | 0.184 µM [rising, full curve, poor fit] | –
39 | CC(C)c1ccc(NC(=O)COC(=O)/C=C/c2cccc(Br)c2)cc1 | -45.2% | 6.51 µM [falling, full curve] | 6.51 µM [falling, full curve]
40 | CC(C)CCNC(=O)c1ccc2nc[nH]c2c1 | 11.6% | 6.51 µM [falling, single point] | –

Another view of part of the listing above:
Row	SMILES	cell number change	AC50 [1]	AC50 [2]
33	COc1cccc(Nc2ncnc3sc(C)cc23)c1	1.32%	29.1 µM [falling, single point]	–
36	COC(=O)c1ccccc1NC(=O)C1CC(=O)N(c2ccccc2)C1 (centres undefined)	–	–	6.51 µM [rising, single point]

Following part.

Row | SMILES | cell number change | AC50 [1] | AC50 [2]
41 | CC(C)(C)c1ccc(C(=O)N2CCC(C(=O)N3CCCCC3)CC2)cc1 | 14.5% | – | –
42 | CN(C)c1ccc(C(C(=O)NCC2CCCO2)N(C(=O)c2snc(C(N)=O)c2N)c2ccccc2)cc1 (centres undefined) | -7.69% | – | –
43 | O=C(CSc1nnc(NC(=O)c2ccco2)s1)Nc1ccccc1 | -29.9% | 29.1 µM [falling, single point] | –
44 | O=C(O)CC1(CC(=O)Nc2ccc(Oc3cccc(C(F)(F)F)c3)nc2)CCCC1 | -61.3% | 20.6 µM [falling, single point] | 29.1 µM [falling, single point]
45 | O=S(=O)(Nc1ccc(O)c2ccccc12)c1ccc(Br)cc1 | 2.56% | 5.17 µM [rising, single point] | –
46 | COc1ccc(CCNC(=O)c2ccc3c(c2)NC(=O)C(N2CCOCC2)S3)cc1OC (centres undefined) | – | 2.91 µM [falling, partial curve] | –
47 | Cc1cccc(-n2ncc3c(NCCCN4CCCC4=O)ncnc32)c1 | -26.8% | 0.00461 µM [falling, full curve, poor fit] | –
48 | CC(C)[C@H](NS(=O)(=O)c1cccc(C(F)(F)F)c1)C(=O)OCC(N)=O | -52.4% | – | 29.1 µM [falling, single point]
49 | C#CCOc1ccc(/C=C2/C(=O)NN(c3ccccc3)C2=O)cc1OC | 14.4% | 29.1 µM [falling, single point] | 0.103 µM [rising, full curve, poor fit]
50 | O=c1c2ccccc2sn1-c1nccs1 | -61.5% | 16.4 µM [falling, partial curve, poor fit] | 32.6 µM [falling, single point]
51 | COC(=O)Cc1ccc(NC(=S)Nc2ccc(N3CCOCC3)cc2)cc1 | 32% | – | –
52 | CC1=C([N+](=O)[O-])C(c2ccc(O)c(O)c2)NC(=O)N1 (centres undefined) | 18.9% | 29.1 µM [rising, single point] | –
53 | CCOC(=O)C1CCN(Cc2ccc(OC)cc2OC)CC1 | -138% | 29.1 µM [falling, partial curve] | 29.1 µM [falling, partial curve]
54 | O=C(Nc1ccncc1)Nc1ccncc1 | 7.57% | – | –
55 | COC(=O)CSc1nnc(CNc2ccc(Cl)cc2)n1Cc1ccccc1 | -32.7% | 18.4 µM [falling, partial curve] | 0.92 µM [falling, full curve]
56 | Cc1ccc(C)c(C(=O)CCC(=O)O)c1 | 7.34% | 0.411 µM [falling, full curve, poor fit] | –
57 | CCCCSC(=O)Nc1ccccc1 | -17.6% | – | –
58 | CCN(CC)S(=O)(=O)c1ccc(/C=C/C(=O)OCC(=O)Nc2cccnc2Cl)cc1 | -10.2% | 0.00461 µM [falling, full curve, poor fit] | –
59 | CCC(C)[C@H](NC(=O)[C@@H]1CSC2c3ccccc3C(=O)N21)C(=O)NCc1ccncc1 (some centres undefined) | -9.2% | 6.51 µM [falling, single point] | –
